Data as given in PubChem BioAssay AID686943 (Drosophila RNAi Screening Center, 2013).
In all, the deposit lists about 23,000 reagents; below is an unselected part of those with a known target gene and a result. 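Extra replicates exist only for a retested subset of genes; insulin dose and duration not given; both raised and lowered dpERK matter.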 The numbers tell different reagents against one gene apart. Further read-outs or replicates are left out here. Not stated in the record: the amount of reagent, the time to read-out.

- Aim: 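Knockdowns that increase or decrease active ERK after insulin receptor stimulation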 (primary screen)
- System: Drosophila S2R+ haemocyte-like cells expressing YFP-tagged ERK (Rolled)
- Knock-down reagent: long dsRNA against Drosophila genes
- Conditions: insulin stimulation versus unstimulated cells; dose and duration not given
- Measured: 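Per-plate z-scores of phospho-ERK immunostaining normalised to YFP-tagged ERK, measured with and without insulin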
- Direction: replicate 1, z-score of dpERK with insulin and replicate 2, z-score of dpERK with insulin: higher = more active ERK per ERK-YFP after insulin

How did the screen score SPARC?
replicate 1, z-score of dpERK with insulin: 0.73; replicate 2, z-score of dpERK with insulin: 0

With Bhmt, how do the results read?
replicate 1, z-score of dpERK with insulin: 0.91; replicate 2, z-score of dpERK with insulin: 0.01

For CG9919, what does the deposit list?
replicate 1, z-score of dpERK with insulin: 0.28; replicate 2, z-score of dpERK with insulin: 0.56

With mip120, what does the deposit list?
replicate 1, z-score of dpERK with insulin: -0.77; replicate 2, z-score of dpERK with insulin: -0.72

For Osi20, what was measured?
replicate 1, z-score of dpERK with insulin: -0.4; replicate 2, z-score of dpERK with insulin: 0.46

With Kat60, what was measured?
replicate 1, z-score of dpERK with insulin: 0.88; replicate 2, z-score of dpERK with insulin: 0.82

Which result is listed for Mst57Db?
replicate 1, z-score of dpERK with insulin: 0.24; replicate 2, z-score of dpERK with insulin: 0.21

For Ir51a, what does the deposit list?
replicate 1, z-score of dpERK with insulin: -0.43; replicate 2, z-score of dpERK with insulin: -1.35

How did the screen score CG42565?
replicate 1, z-score of dpERK with insulin: -0.21; replicate 2, z-score of dpERK with insulin: 0.14

For CG5885, how do the results read?
replicate 1, z-score of dpERK with insulin: 0.27; replicate 2, z-score of dpERK with insulin: 0.41

What did the screen give for CG15756?
replicate 1, z-score of dpERK with insulin: -0.24; replicate 2, z-score of dpERK with insulin: -0.08

With hfp #1, what was measured?
replicate 1, z-score of dpERK with insulin: -0.63; replicate 2, z-score of dpERK with insulin: -0.21

How did the screen score hfp #2?
replicate 1, z-score of dpERK with insulin: 0.34; replicate 2, z-score of dpERK with insulin: 0.69

What did the screen give for hfp #3?
replicate 1, z-score of dpERK with insulin: 0.81; replicate 2, z-score of dpERK with insulin: 0.03

Which result is listed for CG7953?
replicate 1, z-score of dpERK with insulin: 0.15; replicate 2, z-score of dpERK with insulin: 0.69

With Marcal1, what was measured?
replicate 1, z-score of dpERK with insulin: -0.36; replicate 2, z-score of dpERK with insulin: -0.4

For Act87E, what does the deposit list?
replicate 1, z-score of dpERK with insulin: -0.35; replicate 2, z-score of dpERK with insulin: -0.13

What is on record for Or47b?
replicate 1, z-score of dpERK with insulin: 0.82; replicate 2, z-score of dpERK with insulin: 0.75

What did the screen give for alpha-Cat?
replicate 1, z-score of dpERK with insulin: -0.13; replicate 2, z-score of dpERK with insulin: 0.99

For asl, how do the results read?
replicate 1, z-score of dpERK with insulin: -1.07; replicate 2, z-score of dpERK with insulin: -0.33

For Trim9, what does the deposit list?
replicate 1, z-score of dpERK with insulin: -0.28; replicate 2, z-score of dpERK with insulin: 0.16

Sorted by “replicate 1, z-score of dpERK with insulin” (lowest first): some entries from above.
mip120: replicate 1, z-score of dpERK with insulin = -0.77; replicate 2, z-score of dpERK with insulin = -0.72
Osi20: replicate 1, z-score of dpERK with insulin = -0.4; replicate 2, z-score of dpERK with insulin = 0.46
CG9919: replicate 1, z-score of dpERK with insulin = 0.28; replicate 2, z-score of dpERK with insulin = 0.56
Bhmt: replicate 1, z-score of dpERK with insulin = 0.91; replicate 2, z-score of dpERK with insulin = 0.01

More entries follow:
With beat-IIIc #1, what was measured?
replicate 1, z-score of dpERK with insulin: -0.11; replicate 2, z-score of dpERK with insulin: 0.37

For beat-IIIc #2, what was measured?
replicate 1, z-score of dpERK with insulin: 0.1; replicate 2, z-score of dpERK with insulin: 0.09

Which result is listed for CG6296?
replicate 1, z-score of dpERK with insulin: -0.02; replicate 2, z-score of dpERK with insulin: 0.06

For Hel89B #1, how do the results read?
replicate 1, z-score of dpERK with insulin: 0.94; replicate 2, z-score of dpERK with insulin: 0.41

With Hel89B #2, what does the deposit list?
replicate 1, z-score of dpERK with insulin: -0.23; replicate 2, z-score of dpERK with insulin: -0.03

What is on record for CG9673?
replicate 1, z-score of dpERK with insulin: -0.4; replicate 2, z-score of dpERK with insulin: 0.32

What did the screen give for CG31792?
replicate 1, z-score of dpERK with insulin: 0.22; replicate 2, z-score of dpERK with insulin: -0.42

For AkhR, what was measured?
replicate 1, z-score of dpERK with insulin: -0.47; replicate 2, z-score of dpERK with insulin: -0.11

With lncRNA:CR31386, what was measured?
replicate 1, z-score of dpERK with insulin: -1.11; replicate 2, z-score of dpERK with insulin: -0.25

What did the screen give for CG7164?
replicate 1, z-score of dpERK with insulin: -1.76; replicate 2, z-score of dpERK with insulin: -0.33

What is on record for Lamtor1?
replicate 1, z-score of dpERK with insulin: 0.45; replicate 2, z-score of dpERK with insulin: -0.26

For Prx4, what does the deposit list?
replicate 1, z-score of dpERK with insulin: 0.32; replicate 2, z-score of dpERK with insulin: -0.19

How did the screen score CG42694?
replicate 1, z-score of dpERK with insulin: 0.98; replicate 2, z-score of dpERK with insulin: 0.29

For CG32115, what does the deposit list?
replicate 1, z-score of dpERK with insulin: -0.3; replicate 2, z-score of dpERK with insulin: -0.18

Which result is listed for Cbs?
replicate 1, z-score of dpERK with insulin: 0.36; replicate 2, z-score of dpERK with insulin: -1.01

For bdwf, what was measured?
replicate 1, z-score of dpERK with insulin: 0.85; replicate 2, z-score of dpERK with insulin: 0.57

For Adk3, what was measured?
replicate 1, z-score of dpERK with insulin: -0.08; replicate 2, z-score of dpERK with insulin: 0.3

What did the screen give for ms(2)35Ci?
replicate 1, z-score of dpERK with insulin: 0.27; replicate 2, z-score of dpERK with insulin: 0.81

With Gal, how do the results read?
replicate 1, z-score of dpERK with insulin: -0.08; replicate 2, z-score of dpERK with insulin: -0.05
